# Assay results published in patent US20260216164A1, “INDOLE COMPOUND DECOMPOSING IKZF2, AND USE THEREOF” (KOREA RESEARCH INSTITUTE OF CHEMICAL TECHNOLOGY, priority 2023, published 2026).
# Protein sequences, listed by entry. Tags and fused reporters are not part of them. Lines headed by an entry give the natural chain unless they say otherwise; changes in a name come on top.
# UniProt Q96SW2: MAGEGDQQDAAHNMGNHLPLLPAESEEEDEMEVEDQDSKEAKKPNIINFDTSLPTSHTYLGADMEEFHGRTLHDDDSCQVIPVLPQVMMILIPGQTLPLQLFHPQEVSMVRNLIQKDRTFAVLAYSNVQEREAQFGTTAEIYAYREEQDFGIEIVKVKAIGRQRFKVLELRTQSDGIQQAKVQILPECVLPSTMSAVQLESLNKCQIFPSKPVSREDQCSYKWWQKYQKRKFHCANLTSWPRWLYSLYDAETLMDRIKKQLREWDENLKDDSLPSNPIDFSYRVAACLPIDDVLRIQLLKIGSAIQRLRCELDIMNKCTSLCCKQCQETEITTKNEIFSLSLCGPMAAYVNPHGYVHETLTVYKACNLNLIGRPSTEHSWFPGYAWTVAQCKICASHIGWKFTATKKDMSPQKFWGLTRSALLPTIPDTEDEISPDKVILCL
# UniProt Q9UKS7: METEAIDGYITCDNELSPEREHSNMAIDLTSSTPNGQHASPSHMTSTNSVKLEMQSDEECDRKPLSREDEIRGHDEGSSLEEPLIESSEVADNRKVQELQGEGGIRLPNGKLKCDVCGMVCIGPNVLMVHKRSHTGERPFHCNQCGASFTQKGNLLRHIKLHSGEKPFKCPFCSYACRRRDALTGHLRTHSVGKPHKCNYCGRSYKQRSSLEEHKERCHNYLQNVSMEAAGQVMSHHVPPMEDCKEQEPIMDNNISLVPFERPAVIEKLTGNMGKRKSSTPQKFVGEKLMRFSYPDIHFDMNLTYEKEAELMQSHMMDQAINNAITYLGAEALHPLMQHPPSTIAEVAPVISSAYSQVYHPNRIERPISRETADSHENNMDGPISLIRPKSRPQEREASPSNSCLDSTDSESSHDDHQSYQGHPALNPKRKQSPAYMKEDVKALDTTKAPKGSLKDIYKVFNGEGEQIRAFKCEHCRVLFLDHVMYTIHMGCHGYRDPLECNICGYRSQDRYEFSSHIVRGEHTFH
# Some entries share one result that the patent states for a list of compounds.
# Molecular target: Helios (IKZF2) (Homo sapiens, UniProt Q96SW2+Q9UKS7)
# Experiment: Screening of Helios protein degraders using Nano-Glo HiBiT cell line (HiBiT-IKZF2)
# Type: cell-based
# Details: as shown in Table 1
# Procedure: To observe intracellular degradation of Helios, the Nano-Glo HiBiT detection system (Promega) was employed. […] The cells expressing Helios fused with HiBiT were validated using the Nano-Glo HiBiT detection system (Promega) according to a predetermined protocol, isolated as single cells, and cultured in complete medium to establish a monoclonal cell line.
# After 6 hours, the Nano-Glo HiBiT detection reagent was added to each well in an equal volume to the cell culture medium and incubated at room temperature for 10 minutes. Following incubation, the HiBiT luminescence signal was measured using a microplate reader (Perkin Elmer).
row,SMILES,"IKZF2 degradation activity (in words, comment on Table 1)"
1,"Cc1c(C(=O)N2CCC(c3ccc4c(c3)C(=O)N(C3CCC(=O)NC3=O)C4=O)CC2)[nH]c2cc(Cl)ccc12 (stereo not drawn) [Compound 92, 5-(1-(6-chloro-3-methyl-1H-indole-2-carbonyl)piperidin-4-yl)-2-(2,6-dioxopiperidin-3-yl)isoindoline-1,3-dione]",even greater IKZF2 degradation activity
2,"Cc1c(C(=O)N2CCC(c3cc4c(cc3F)C(=O)N(C3CCC(=O)NC3=O)C4)CC2)[nH]c2cc([N+](=O)[O-])ccc12 (stereo not drawn) [Compound 93, 3-(6-fluoro-5-(1-(3-methyl-6-nitro-1H-indole-2-carbonyl)piperidin-4-yl)-1-oxoinsoindolin-2-yl)piperidine-2,6-dione]",even greater IKZF2 degradation activity
3,"Cc1c(C(=O)N2CCC(c3ccc4c(c3F)CN(C3CCC(=O)NC3=O)C4=O)CC2)[nH]c2cc([N+](=O)[O-])ccc12 (stereo not drawn) [Compound 94, 3-(4-fluoro-5-(1-(3-methyl-6-nitro-1H-indole-2-carbonyl)piperidin-4-yl)-1-oxoinsoindolin-2-yl)piperidine-2,6-dione]",even greater IKZF2 degradation activity
4,"Cc1c(C(=O)N2CCC(c3ccc4c(c3)C(=O)N(C3CCC(=O)NC3=O)C4=O)CC2)[nH]c2cc([N+](=O)[O-])ccc12 (stereo not drawn) [Compound 95, 2-(2,6-dioxopiperidin-3-yl)-5-(1-(3-methyl-6-nitro-1H-indole-2-carbonyl)piperidin-4-yl)isoindoline-1,3-dione]",even greater IKZF2 degradation activity
5,"COc1cc2c(C)c(C(=O)N3CCC(c4ccc5c(c4)CN(C4CCC(=O)NC4=O)C5=O)CC3)[nH]c2cc1[N+](=O)[O-] (stereo not drawn) [Compound 97, 3-(5-(1-(5-methoxy-3-methyl-6-nitro-1H-indole-2-carbonyl)piperidin-4-yl)-1-oxoinsoindolin-2-yl)piperidine-2,6-dione]",even greater IKZF2 degradation activity
6,"Cc1c(C(=O)N2CCC(c3ccc4c(c3)CN(C3CCC(=O)NC3=O)C4=O)CC2)[nH]c2c(F)c(Cl)ccc12 (stereo not drawn) [Compound 99, 3-(5-(1-(6-chloro-7-fluoro-3-methyl-1H-indole-2-carbonyl)piperidin-4-yl)-1-oxoinsoindolin-2-yl)piperidine-2,6-dione]",even greater IKZF2 degradation activity
7,"Cc1c(C(=O)N2CCC(c3ccc4c(c3)CN(C3CCC(=O)NC3=O)C4=O)CC2)[nH]c2c(C)c(Cl)ccc12 (stereo not drawn) [Compound 100, 3-(5-(1-(6-chloro-3,7-dimethyl-1H-indole-2-carbonyl)piperidin-4-yl)-1-oxoinsoindolin-2-yl)piperidine-2,6-dione]",even greater IKZF2 degradation activity
8,"Cc1c(C(=O)N2CCC(c3ccc4c(c3)CN(C3CCC(=O)NC3=O)C4=O)CC2)[nH]c2cc(Cl)c(O)cc12 (stereo not drawn) [Compound 101, 3-(5-(1-(6-chloro-5-hydroxy-3-methyl-1H-indole-2-carbonyl)piperidin-4-yl)-1-oxoinsoindolin-2-yl)piperidine-2,6-dione]",even greater IKZF2 degradation activity
9,"Cc1c(C(=O)N2CCC(c3ccc4c(c3)CN(C3CCC(=O)NC3=O)C4=O)CC2)[nH]c2cc(Cl)c(F)cc12 (stereo not drawn) [Compound 102, 3-(5-(1-(6-chloro-5-fluoro-3-methyl-1H-indole-2-carbonyl)piperidin-4-yl)-1-oxoinsoindolin-2-yl)piperidine-2,6-dione]",even greater IKZF2 degradation activity
10,"Cc1cc2c(C)c(C(=O)N3CCC(c4ccc5c(c4)CN(C4CCC(=O)NC4=O)C5=O)CC3)[nH]c2cc1Cl (stereo not drawn) [Compound 103, 3-(5-(1-(6-chloro-3,5-dimethyl-1H-indole-2-carbonyl)piperidin-4-yl)-1-oxoinsoindolin-2-yl)piperidine-2,6-dione]",even greater IKZF2 degradation activity
11,"O=C1CCC(N2Cc3cc(C4CCN(C(=O)c5[nH]c6cc(Cl)ccc6c5CO)CC4)ccc3C2=O)C(=O)N1 (stereo not drawn) [Compound 105, 3-(5-(1-(6-chloro-3-(hydroxymethyl)-1H-indole-2-carbonyl)piperidin-4-yl)-1-oxoinsoindolin-2-yl)piperidine-2,6-dione]",even greater IKZF2 degradation activity
12,"Cc1c(C(=O)N2CCC(c3ccc4c(c3)CN(C3CCC(=O)NC3=O)C4=O)CC2)[nH]c2cc(CN3CCNCC3)ccc12.Cl.Cl (stereo not drawn) [Compound 106, 3-(5-(1-(3-methyl-6-(piperazin-1-ylmethyl)-1H-indole-2-carbonyl)piperidin-4-yl)-1-oxoinsoindolin-2-yl)piperidine-2,6-dione dichloride]",even greater IKZF2 degradation activity
13,"Cc1c(C(=O)N2CCC(c3ccc4c(c3)CN(C3CCC(=O)NC3=O)C4=O)CC2)[nH]c2cc(Cl)cc(Cl)c12 (stereo not drawn) [Compound 107, 3-(5-(1-(4,6-dichloro-3-methyl-1H-indole-2-carbonyl)piperidin-4-yl)-1-oxoinsoindolin-2-yl)piperidine-2,6-dione]",even greater IKZF2 degradation activity
14,"COc1cc2c(C)c(C(=O)N3CCC(c4ccc5c(c4F)CN(C4CCC(=O)NC4=O)C5=O)CC3)[nH]c2cc1Cl (stereo not drawn) [Compound 108, 3-(5-(1-(6-chloro-5-methoxy-3-methyl-1H-indole-2-carbonyl)piperidin-4-yl)-4-fluoro-1-oxoinsoindolin-2-yl)piperidine-2,6-dione]",even greater IKZF2 degradation activity
15,"Cc1c(C(=O)N2CCC(c3ccc4c(c3)CN(C3CCC(=O)NC3=O)C4=O)CC2)[nH]c2cc(Cl)c(CN3CCNCC3)cc12.Cl.Cl (stereo not drawn) [Compound 109, 3-(5-(1-(6-chloro-3-methyl-5-(piperazin-1-ylmethyl)-1H-indole-2-carbonyl)piperidin-4-yl)-1-oxoinsoindolin-2-yl)piperidine-2,6-dione dichloride]",even greater IKZF2 degradation activity
16,"COc1ccc2c(CN3CCOCC3)c(C(=O)N3CCC(c4ccc5c(c4)CN(C4CCC(=O)NC4=O)C5=O)CC3)[nH]c2c1 (stereo not drawn) [Compound 110, 3-(5-(1-(6-methoxy-3-(morpholinomethyl)-1H-indole-2-carbonyl)piperidin-4-yl)-1-oxoinsoindolin-2-yl)piperidine-2,6-dione]",even greater IKZF2 degradation activity
17,"Cc1c(C(=O)N2CCC(c3cc4c(cc3F)C(=O)N(C3CCC(=O)NC3=O)C4)CC2)[nH]c2cc(Cl)c(F)cc12 (stereo not drawn) [Compound 112, 3-(5-(1-(6-chloro-5-fluoro-3-methyl-1H-indole-2-carbonyl)piperidin-4-yl)-6-fluoro-1-oxoinsoindolin-2-yl)piperidine-2,6-dione]",even greater IKZF2 degradation activity
18,"Cc1c(C(=O)N2CCC(c3ccc4c(c3F)CN(C3CCC(=O)NC3=O)C4=O)CC2)[nH]c2cc(Cl)c(F)cc12 (stereo not drawn) [Compound 113, 3-(5-(1-(6-chloro-5-fluoro-3-methyl-1H-indole-2-carbonyl)piperidin-4-yl)-4-fluoro-1-oxoinsoindolin-2-yl)piperidine-2,6-dione]",even greater IKZF2 degradation activity
19,"CN1CCN(Cc2c(C(=O)N3CCC(c4ccc5c(c4)CN(C4CCC(=O)NC4=O)C5=O)CC3)[nH]c3cc(Cl)ccc23)CC1 (stereo not drawn) [Compound 114, 3-(5-(1-(6-chloro-3-((4-methylpiperazin-1-yl)methyl)-1H-indole-2-carbonyl)piperidin-4-yl)-1-oxoinsoindolin-2-yl)piperidine-2,6-dione]",even greater IKZF2 degradation activity
20,"Cc1c(C(=O)N2CCC(c3ccc4c(c3F)CN(C3CCC(=O)NC3=O)C4=O)CC2)[nH]c2cc(Cl)c(O)cc12 (stereo not drawn) [Compound 115, 3-(5-(1-(6-chloro-5-hydroxy-3-methyl-1H-indole-2-carbonyl)piperidin-4-yl)-4-fluoro-1-oxoinsoindolin-2-yl)piperidine-2,6-dione]",even greater IKZF2 degradation activity
21,"Cc1c(C(=O)N2CCC(c3ccc4c(c3F)CN(C3CCC(=O)NC3=O)C4=O)CC2)[nH]c2cc(N3CCOCC3)ccc12 (stereo not drawn) [Compound 116, 3-(4-fluoro-5-(1-(3-methyl-6-morpholino-1H-indole-2-carbonyl)piperidin-4-yl)-1-oxoinsoindolin-2-yl)piperidine-2,6-dione]",even greater IKZF2 degradation activity
22,"Cc1c(C(=O)N2CCC(c3ccc4c(c3F)CN(C3CCC(=O)NC3=O)C4=O)CC2)[nH]c2c(F)c(Cl)ccc12 (stereo not drawn) [Compound 117, 3-(5-(1-(6-chloro-7-fluoro-3-methyl-1H-indole-2-carbonyl)piperidin-4-yl)-4-fluoro-1-oxoinsoindolin-2-yl)piperidine-2,6-dione]",even greater IKZF2 degradation activity
23,"Cc1c(C(=O)N2CCC(c3ccc4c(c3F)CN(C3CCC(=O)NC3=O)C4=O)CC2)[nH]c2cc(C#N)ccc12 (stereo not drawn) [Compound 118, 2-(4-(2-(2,6-dioxopiperidin-3-yl)-4-fluoro-1-oxoindolin-5-yl)piperidine-1-carbonyl)-3-methyl-1H-indole-6-carbonitrile]",even greater IKZF2 degradation activity
24,"Cc1c(C(=O)N2CCC(c3ccc4c(c3F)CN(C3CCC(=O)NC3=O)C4=O)CC2)[nH]c2cc(Cl)c(C#N)cc12 (stereo not drawn) [Compound 119, 6-chloro-2-(4-(2-(2,6-dioxopiperidin-3-yl)-4-fluoro-1-oxoindolin-5-yl)piperidine-1-carbonyl)-3-methyl-1H-indole-5-carbonitrile]",even greater IKZF2 degradation activity
